The experiment has as its system T1, BChE in the hippocampus region of mouse brain.
T1 construct: from tissue; host or cells: mouse brain hippocampus (supernatant of homogenate)
Format: in vivo. The settings on record: pretreatment with donepezil, then scopolamine, n = 6. As to the method:
The groups were kept for 7 days at various treatments doses.
The mice were sacrificed immediately after the behavioral study by cervical dislocation to provide quick and painless death to each animal before decapitation. Brain of each animal was excised in phosphate buffer saline (chilled) and incorporated into biochemical biomarker analysis.
Cholinesterase (AChE and BChE) levels were determined in the excised brain hippocampus using Ellman’s method with slight modification. Supernatant (0.4 mL), 0.1 M/L, pH 8 phosphate buffer (2.6 mL), and 100 µL of DTNB (5,5′-dithiobis-2-nitrobenzoic acid) and were added into cuvette and mixed. Spectrophotometer at 412 nm was run and absorbance was measured several times, then […] acetyl thiocholine iodide/butyrylthiocholine chloride was mixed into the reaction as substrate at an interval of 2 min, and variation in absorbance was noted and the changes in absorbance per min were recorded. The following formula was used for calculation of cholinesterase level: R = 5.74 × 10^−4 × A/CO where ‘R’ is the moles (rate) of substrate hydrolyzed/min/mg of protein, (A) is the change in absorbance/min, and ‘CO’ is concentration (20 mg/mL) of protein.

Each structure is given as a SMILES string.

Consider `COc1cc2c(cc1OC)C(=O)C(CC1CCN(Cc3ccccc3)CC1)C2` (stereo not shown) [Donepezil, reference compound], for which the “Hippocampus BChE level” value is 20.69 ± 1.73 µmol/min/mg of protein.
